From US8759261B2, “Method and composition for enhanced hydrocarbons recovery” (Shell Oil Company, priority 2008, dated 2014)
At least one read-out could not be matched to a standard name with certainty.

Assay: Solvent addition to improve aqueous solubility of IOS blend in seawater brine
Assay type: physicochemical
Settings: 1% solvent added to 3.2% brine containing 0.2% blend of 78% IOS 2024 and 22% IOS 2428
Description: The first attempt to improve the aqueous solubility of these blends was to use small amounts of solvents added to an IOS blend and seawater brine. One percent solvent was added to 3.2% brine solutions (see Table 1 for brine composition) containing a 0.2% blend of 78% IOS 2024 and 22% IOS 2428. This particular surfactant blend had been identified for minimizing the oil-water interfacial tension between the crude oil and brine representative of a North Sea reservoir. Additions of 1% hexylene glycol, 1-hexanol, polyethylene glycol (mw=400) and sodium xylene sulfonate were studied.
A small amount of alcohol ethoxylate (8% relative to the IOS) was added to a second sample of sodium xylene sulfonate.

Substance: sodium xylene sulfonate
- solubilizing of the solid in the IOS blend: solubilizing most but not all of the solid
